{"source": "patent US12324927B2", "about": "“Methods and systems for photodynamic therapy calculations” (THE TRUSTEES OF THE UNIVERSITY OF PENNSYLVANIA, priority 2018, dated 2025)", "test": "Photofrin concentration and PDT dose at pleural cavity sites measured by fluorescence with 4-channel PDT dose dosimeter during Photofrin-mediated pleural PDT", "assay_type": "in vivo, human", "method": "The patients in this study were enrolled in a Phase II randomized clinical trial of Photofrin-mediated PDT for pleural mesothelioma treatment. Having given informed consent, they were administered Photofrin (Pinnacle Biologics, Chicago, IL, USA) at 2 mg kg^−1 of body weight as an intravenous infusion 24 h prior to intra-operative PDT. PDT was performed in the operating room, immediately following radical pleurectomy and debulking of tumor. PDT treatment was performed with 632 nm light provided by a KTP-pumped dye laser (model 630 XP, Laserscope, Inc., San Jose, CA, USA) to a total fluence of 60 J cm^−2. Light was delivered to the pleural cavity via an optical fiber inserted into modified endotracheal tube filled with 0.1% intralipid to produce an extended isotropic light source. The pleural cavity was filled with 0.01% intralipid solution during PDT treatment. As the intralipid solution became contaminated with blood as observed by the treating physician, it was repeatedly removed by suction pump and replaced with fresh solution to minimize light absorption by hemoglobin. The light source was circulated around in the lung cavity by the physician during the PDT. The instantaneous light fluence rate and the cumulative light dose were monitored continuously using 8 isotropic detectors (Medlight, Switzerland) sutured to 8 strategic locations within the pleural cavity wall. […] Light fluence rate at surface is measured directly with an isotropic detector placed on the surface. The measured light fluence rate is not reflective of intra-tissue light fluence rate, which may be higher or lower than the value on the tissue surface depending on the tissue optical properties. Fluorescence collected by the fibers was collimated and passed through long pass filters (Semrock, Inc., Rochester, NY, USA) to block the treatment light before the transmitted fluorescence was recorded by the spectrometers, whereas no filtration was required for the treatment-light signal in the other arm of the bifurcated fibers. […] In this study, Channels 1 to 4 are used to measure fluence rate of the treatment light and Photofrin fluorescence concurrently, while Channel 9 to 12 are used to measure light fluence rate only.\nDiffuse reflectance measurements were acquired before and after PDT treatment using a specially designed fiber optic-based contact probe comprising (e.g., or consisting of) one source fiber, coupled to an air-cooled quartz-tungsten-halogen (QTH) lamp (Avalight HAL-S, Avantes, Inc., Louisville, CO, USA), and 9 detection fibers spaced at distances from 1.4 to 8.7 mm from the source. […] Background signal was measured in the same tissue with the white light source turned off, and then subtracted from each measurement. […]", "key": {"[1]": {"details": "22 sites in pleural cavity of 8 patients"}, "[2]": {"details": "22 sites, 8 patients, 60 J cm^−2"}}, "data": [{"substance": "Photofrin", "values": [{"measurement": "difference of PDT doses inter-patient", "setting": "[1]", "result": 8.3, "unit": "times"}, {"measurement": "difference of PDT doses intra-patient", "setting": "[1]", "result": 2.9, "unit": "times"}, {"measurement": "mean PDT dose of all sites", "setting": "[2]", "result": "390.1±198.9", "unit": "MJ cm^−2"}, {"measurement": "median PDT dose of all sites", "setting": "[2]", "result": "333.6±198.9", "unit": "μMJ cm^−2"}]}]}
